Data as given in the supplement of paper PMC7661543.
± gives the standard deviation of the averaged measurements. The effect of the compound repeats well; differences between the knockouts mostly do not.

Test system: BT-20
Assay: relative cell number vs DMSO control (72 h) (% of DMSO); higher = less growth inhibition (more cells)
Experimental: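 QMAP-Seq: a pool of 5 breast cancer cell lines (ZR-75-1, SKBR3, HCC-38, MDA-MB-231, BT-20), each carrying 12 doxycycline-inducible Cas9 sgRNA perturbations (11 knockouts plus non-targeting sgNT), was treated with compounds for 72 h at four 10-fold doses (10 nM-10 uM or 1 nM-1 uM range). Barcodes were amplified and sequenced, and cell number was interpolated from 293T spike-in standard curves. The result is expressed as % of the median of DMSO wells. Two biological replicates.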

CC(C)C[C@H](NC(=O)CNC(=O)c1cc(Cl)ccc1Cl)B(O)O [MLN2238]
Conditions	relative cell number
sgRNA knockout: sgATF3, 10 nM	99.4 ± 23
sgRNA knockout: sgATF3, 100 nM	91.1 ± 17
sgRNA knockout: sgATF3, 1000 nM	32.8 ± 2.3
sgRNA knockout: sgATF3, 10000 nM	12.9 ± 8.2
sgRNA knockout: sgATF4, 10 nM	81.6 ± 19
sgRNA knockout: sgATF4, 100 nM	85.3 ± 8.1
sgRNA knockout: sgATF4, 1000 nM	29.6 ± 5.3
sgRNA knockout: sgATF4, 10000 nM	11.2 ± 6.5
sgRNA knockout: sgATF6, 10 nM	76.7 ± 6.6
sgRNA knockout: sgATF6, 100 nM	72.1 ± 9.2
sgRNA knockout: sgATF6, 1000 nM	27.5 ± 1.4
sgRNA knockout: sgATF6, 10000 nM	19.3 ± 6.5
sgRNA knockout: sgATG7, 10 nM	84 ± 8.5
sgRNA knockout: sgATG7, 100 nM	83.2 ± 3.4
sgRNA knockout: sgATG7, 1000 nM	26.1 ± 3.3
sgRNA knockout: sgATG7, 10000 nM	12.7 ± 1
sgRNA knockout: sgERN1, 10 nM	96.1 ± 7
sgRNA knockout: sgERN1, 100 nM	97.3 ± 3.8
sgRNA knockout: sgERN1, 1000 nM	28.5 ± 3
sgRNA knockout: sgERN1, 10000 nM	17 ± 6.7
sgRNA knockout: sgHSF1, 10 nM	67.7 ± 2.8
sgRNA knockout: sgHSF1, 100 nM	69.4 ± 1.2
sgRNA knockout: sgHSF1, 1000 nM	21.1 ± 7.4
sgRNA knockout: sgHSF1, 10000 nM	9.81 ± 6.1
sgRNA knockout: sgHSF2, 10 nM	86.4 ± 12
sgRNA knockout: sgHSF2, 100 nM	100.5 ± 0.22
sgRNA knockout: sgHSF2, 1000 nM	37.8 ± 1.5
sgRNA knockout: sgHSF2, 10000 nM	12.3 ± 5.6
sgRNA knockout: sgKEAP1, 10 nM	93.4 ± 8
sgRNA knockout: sgKEAP1, 100 nM	94.6 ± 4.3
sgRNA knockout: sgKEAP1, 1000 nM	33 ± 0.85
sgRNA knockout: sgKEAP1, 10000 nM	14.6 ± 3
sgRNA knockout: sgNFE2L2, 10 nM	76.5 ± 10
sgRNA knockout: sgNFE2L2, 100 nM	61.8 ± 18
sgRNA knockout: sgNFE2L2, 1000 nM	23.03 ± 0.11
sgRNA knockout: sgNFE2L2, 10000 nM	14.2 ± 4.2
sgRNA knockout: sgSLC35F2, 10 nM	107 ± 8.8
sgRNA knockout: sgSLC35F2, 100 nM	97.15 ± 0.85
sgRNA knockout: sgSLC35F2, 1000 nM	35.6 ± 7.3
sgRNA knockout: sgSLC35F2, 10000 nM	17.5 ± 3.9
sgRNA knockout: sgXBP1, 10 nM	71.1 ± 14
sgRNA knockout: sgXBP1, 100 nM	80.8 ± 16
sgRNA knockout: sgXBP1, 1000 nM	28.4 ± 0.37
sgRNA knockout: sgXBP1, 10000 nM	7.21 ± 4.1

COc1cc(-n2c(=S)[nH]c3ccccc3c2=O)c(Cl)cc1Cl [Mdivi1]
Conditions	relative cell number
sgRNA knockout: sgATF3, 10 nM	92.1 ± 20
sgRNA knockout: sgATF3, 100 nM	96.1 ± 2.4
sgRNA knockout: sgATF3, 1000 nM	99.5 ± 1.3
sgRNA knockout: sgATF3, 10000 nM	86.7 ± 12
sgRNA knockout: sgATF4, 10 nM	92.9 ± 40
sgRNA knockout: sgATF4, 100 nM	113.87 ± 0.1
sgRNA knockout: sgATF4, 1000 nM	119 ± 9.1
sgRNA knockout: sgATF4, 10000 nM	88.1 ± 10
sgRNA knockout: sgATF6, 10 nM	90.1 ± 16
sgRNA knockout: sgATF6, 100 nM	109 ± 1.7
sgRNA knockout: sgATF6, 1000 nM	105 ± 15
sgRNA knockout: sgATF6, 10000 nM	96.3 ± 15
sgRNA knockout: sgATG7, 10 nM	91.6 ± 6.7
sgRNA knockout: sgATG7, 100 nM	95 ± 16
sgRNA knockout: sgATG7, 1000 nM	95.2 ± 24
sgRNA knockout: sgATG7, 10000 nM	102 ± 4.5
sgRNA knockout: sgERN1, 10 nM	101 ± 23
sgRNA knockout: sgERN1, 100 nM	95.6 ± 11
sgRNA knockout: sgERN1, 1000 nM	99.8 ± 3.7
sgRNA knockout: sgERN1, 10000 nM	96.9 ± 1.3
sgRNA knockout: sgHSF1, 10 nM	89 ± 13
sgRNA knockout: sgHSF1, 100 nM	105 ± 1.6
sgRNA knockout: sgHSF1, 1000 nM	83.9 ± 9.2
sgRNA knockout: sgHSF1, 10000 nM	92.7 ± 18
sgRNA knockout: sgHSF2, 10 nM	85.6 ± 18
sgRNA knockout: sgHSF2, 100 nM	98.8 ± 14
sgRNA knockout: sgHSF2, 1000 nM	106 ± 19
sgRNA knockout: sgHSF2, 10000 nM	95.9 ± 13
sgRNA knockout: sgKEAP1, 10 nM	85 ± 16
sgRNA knockout: sgKEAP1, 100 nM	88.8 ± 10
sgRNA knockout: sgKEAP1, 1000 nM	85.2 ± 2.9
sgRNA knockout: sgKEAP1, 10000 nM	93.5 ± 6.7
sgRNA knockout: sgNFE2L2, 10 nM	80.1 ± 4.9
sgRNA knockout: sgNFE2L2, 100 nM	106 ± 12
sgRNA knockout: sgNFE2L2, 1000 nM	100 ± 27
sgRNA knockout: sgNFE2L2, 10000 nM	93.1 ± 38
sgRNA knockout: sgSLC35F2, 10 nM	92.5 ± 6.4
sgRNA knockout: sgSLC35F2, 100 nM	126 ± 14
sgRNA knockout: sgSLC35F2, 1000 nM	95.8 ± 11
sgRNA knockout: sgSLC35F2, 10000 nM	79 ± 12
sgRNA knockout: sgXBP1, 10 nM	94.7 ± 5.5
sgRNA knockout: sgXBP1, 100 nM	102 ± 3.3
sgRNA knockout: sgXBP1, 1000 nM	109 ± 8.8
sgRNA knockout: sgXBP1, 10000 nM	103 ± 3

O=C1c2c(O)ccc(O)c2C(=O)c2c(NCCNCCO)ccc(NCCNCCO)c21 [Mitoxantrone]
Conditions	relative cell number
sgRNA knockout: sgATF3, 10 nM	65.6 ± 3.5
sgRNA knockout: sgATF3, 100 nM	40.1 ± 6.1
sgRNA knockout: sgATF3, 1000 nM	31.8 ± 3.4
sgRNA knockout: sgATF3, 10000 nM	8.75 ± 1.7
sgRNA knockout: sgATF4, 10 nM	71.9 ± 2.8
sgRNA knockout: sgATF4, 100 nM	36.3 ± 7.7
sgRNA knockout: sgATF4, 1000 nM	30.56 ± 0.22
sgRNA knockout: sgATF4, 10000 nM	9.55 ± 5.9
sgRNA knockout: sgATF6, 10 nM	62.6 ± 13
sgRNA knockout: sgATF6, 100 nM	36.2 ± 14
sgRNA knockout: sgATF6, 1000 nM	26 ± 10
sgRNA knockout: sgATF6, 10000 nM	8.04 ± 4.4
sgRNA knockout: sgATG7, 10 nM	75.4 ± 7.8
sgRNA knockout: sgATG7, 100 nM	45.6 ± 4.2
sgRNA knockout: sgATG7, 1000 nM	25.1 ± 0.5
sgRNA knockout: sgATG7, 10000 nM	7.58 ± 3.9
sgRNA knockout: sgERN1, 10 nM	69 ± 6.7
sgRNA knockout: sgERN1, 100 nM	43.7 ± 9.8
sgRNA knockout: sgERN1, 1000 nM	25.6 ± 3.2
sgRNA knockout: sgERN1, 10000 nM	7.22 ± 2.6
sgRNA knockout: sgHSF1, 10 nM	70.2 ± 5.8
sgRNA knockout: sgHSF1, 100 nM	46.2 ± 9.3
sgRNA knockout: sgHSF1, 1000 nM	23.6 ± 4.7
sgRNA knockout: sgHSF1, 10000 nM	9.06 ± 3.8
sgRNA knockout: sgHSF2, 10 nM	79.2 ± 1.8
sgRNA knockout: sgHSF2, 100 nM	35.1 ± 6.6
sgRNA knockout: sgHSF2, 1000 nM	25.9 ± 11
sgRNA knockout: sgHSF2, 10000 nM	8.19 ± 1.1
sgRNA knockout: sgKEAP1, 10 nM	75.9 ± 3.5
sgRNA knockout: sgKEAP1, 100 nM	37.2 ± 0.76
sgRNA knockout: sgKEAP1, 1000 nM	28.7 ± 0.57
sgRNA knockout: sgKEAP1, 10000 nM	8.29 ± 2.9
sgRNA knockout: sgNFE2L2, 10 nM	56.8 ± 3
sgRNA knockout: sgNFE2L2, 100 nM	33.4 ± 11
sgRNA knockout: sgNFE2L2, 1000 nM	23.5 ± 4
sgRNA knockout: sgNFE2L2, 10000 nM	6.8 ± 3.6
sgRNA knockout: sgSLC35F2, 10 nM	78.5 ± 5.4
sgRNA knockout: sgSLC35F2, 100 nM	39 ± 3
sgRNA knockout: sgSLC35F2, 1000 nM	26.9 ± 4.6
sgRNA knockout: sgSLC35F2, 10000 nM	6.45 ± 3.1
sgRNA knockout: sgXBP1, 10 nM	60.2 ± 1.1
sgRNA knockout: sgXBP1, 100 nM	38.7 ± 7.3
sgRNA knockout: sgXBP1, 1000 nM	31.2 ± 2.6
sgRNA knockout: sgXBP1, 10000 nM	8.93 ± 0.22
